Laboratory results published in PubChem BioAssay AID2685 (National Center for Advancing Translational Sciences (NCATS), 2010).
This is one part of the list. Further columns of the screen follow, without active or inactive calls. The list favours compounds with an active or inconclusive main result. The note in brackets gives the kind of curve behind each potency; many fits are weak.

Assay: qHTS Assay for Lipid Storage Modulators in Drosophila S3 Cells;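 for cell number change: cells counted by Cell Tracker Red CMTPX staining in the red channel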
Settings: BODIPY lipid droplet fluorescence, 18-24 h; for cell number change: measured here: cell count max response, cells fed with added oleic acid
In short: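 Drosophila S3 cells loaded with oleic acid (400 uM, as added) and compounds at several concentrations; lipid droplets imaged by 488-nm laser-scanning cytometry, 500–530 nm intensity and object ratio to cell channel. Percent activity normalized to 20 uM Triacsin C.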

[1] = measured here: cell number channel AC50, cells fed with added oleic acid
[2] = measured here: lipid fluorescence (Fed channel) AC50, cells fed with added oleic acid

| Structure (SMILES) | cell number change | AC50 [1] | AC50 [2] |
| --- | --- | --- | --- |
| COc1ccc(Nc2nc(N)nc(CSC(=S)N3CCCCC3)n2)cc1 | 25.9% | 4.61 µM [rising, partial curve, poor fit] | 0.58 µM [rising, full curve, poor fit] |
| O=C(Nc1ccc(Cl)cc1-c1nc2ccccc2s1)c1ccco1 | – | – | 1.03 µM [falling, partial curve] |
| CCOc1cc(C(=O)Nc2ccc(S(=O)(=O)NC3=NCCCCC3)cc2)cc(OCC)c1OCC | 7.51% | – | – |
| COc1ccc(CN(CC(=O)NC2CCCC2)C(=O)CCC(=O)Nc2nccs2)cc1 | -23.8% | – | 18.4 µM [falling, single point] |
| N#Cc1c2c(c(=S)n(-c3ccccc3)c1N)CCCC2 | 15.3% | – | 6.51 µM [rising, partial curve, poor fit] |
| Cc1cc(-n2cnnn2)ccc1C(C)C | 10.7% | – | – |
| O=S(=O)(c1cnccc1N1CCN(/N=C/c2ccc(Cl)cc2)CC1)N1CCCCC1 | 2.14% | – | 8.2 µM [rising, single point] |
| O=C(COc1ccc(/C=N/NC(=O)c2ccc(O)cc2)cc1)Nc1cccc([N+](=O)[O-])c1 | -23% | – | – |
| CC(=O)c1cccc(NC(=S)N2CCN(S(=O)(=O)c3ccc(F)cc3)CC2)c1 | 9.54% | – | – |
| O=C(CN(CC1CCCO1)C(=O)CNS(=O)(=O)c1ccc(Cl)cc1)NCc1ccc(F)cc1 (centres undefined) | 2.08% | – | – |
| O=C(CSc1nnc(-c2ccncc2)n1CCc1ccccc1)N1CCCC1 | 8.39% | – | – |
| CCCOc1ccc(/C(O)=C2/C(=O)C(=O)N(c3ccccn3)C2c2ccc(OC)cc2)cc1C (centres undefined) | -33.5% | 16.4 µM [falling, single point] | 10.3 µM [falling, partial curve] |
| Cc1cc(-n2c(SCC(=O)Nc3ccc(Br)cc3)nc3n[nH]c(C)c3c2=N)ccc1Cl | -19.8% | – | 18.4 µM [falling, partial curve] |
| Cc1cnc(NC(=O)CCc2ccccc2)s1 | 21.4% | – | 29.1 µM [rising, single point] |
| COc1ccc(N2CC(C(=O)N3CCN(C)CC3)CC2=O)cc1 (centres undefined) | -44.4% | – | 0.58 µM [rising, single point] |
| CCOC(=O)C1CCN(C(=O)c2c(-c3c(F)cccc3Cl)noc2C)CC1 | -9.6% | – | 1.64 µM [falling, partial curve, poor fit] |
| O=C(Nc1ccccc1)Nc1cc(S(=O)(=O)N2CCOCC2)ccc1N1CCCC1 | 10.2% | – | – |
| COc1ccc(C(C)=O)cc1COc1ccc([N+](=O)[O-])c(C)c1 | 27.2% | – | 0.13 µM [falling, full curve, poor fit] |
| CCOc1ccc(CCNC(=O)COC(=O)c2ccc(C)s2)cc1OCC | – | 3.66 µM [falling, partial curve, poor fit] | 3.66 µM [falling, partial curve] |
| O=C1/C(=C/c2cccs2)SC(=S)N1CC(=O)N1CCCCC1CCO (centres undefined) | – | 6.51 µM [rising, single point] | – |

| Structure (SMILES) | cell number change | AC50 [1] | AC50 [2] |
| --- | --- | --- | --- |
| CCC(C)NC(=O)c1ccc(CS(=O)(=O)c2ccc(OC)cc2)o1 (centres undefined) | 34.5% | 11.6 µM [rising, partial curve, poor fit] | 16.4 µM [rising, single point] |
| Cc1onc(-c2ccccc2)c1C(=O)Nc1ccc(S(=O)(=O)NC2=NCCCCC2)cc1 | -7.84% | – | 0.164 µM [falling, full curve, poor fit] |
| Cc1c(C(=O)Nc2ccc(-n3cnnn3)cc2)oc2ccccc12 | 24.5% | 0.92 µM [rising, full curve, poor fit] | – |
| COC(=O)c1sc2nc(SCc3ccccc3C)n(N)c(=O)c2c1C | 14% | – | 0.92 µM [rising, full curve] |
| COc1ccc(NC(C)=O)cc1NC(=O)C1CCCN1C(=O)c1cccs1 (centres undefined) | -4.02% | – | – |
| O=S(=O)(c1ccc(Br)c2ccccc12)N1CCOCC1 | 4.74% | – | 0.13 µM [rising, full curve, poor fit] |
| CN(CCc1ccccn1)C(=S)Nc1ccc(Cl)cc1Cl | – | 3.66 µM [rising, partial curve] | 6.51 µM [rising, single point] |
| CCn1nnc(NC(=O)c2ccc([N+](=O)[O-])o2)n1 | -0.452% | – | – |
| COc1cc(C(C)=O)ccc1OCC(O)CNCC(O)c1ccccc1 (centres undefined) | 25.5% | – | 3.66 µM [rising, full curve, poor fit] |
| Oc1ccc(Br)cc1CNc1nccs1 | 17.8% | 2.06 µM [rising, partial curve] | – |
| Cc1ccc(S(=O)(=O)Cc2ccc(C(=O)O)o2)cc1 | -49.6% | 29.1 µM [falling, single point] | – |
| O=C(CN1C(=O)NC2(CCSC2)C1=O)NCc1ccccc1 (centres undefined) | -31% | 1.64 µM [falling, partial curve, poor fit] | – |
| O=C(c1ccc(S(=O)(=O)Nc2ccccc2)cc1)N1CCCC(C(F)(F)F)C1 (centres undefined) | 4.91% | 0.259 µM [rising, partial curve, poor fit] | – |
| O=C(CSCc1ccc([N+](=O)[O-])cc1)Nc1ccccc1C(=O)O | -43.4% | 29.1 µM [falling, single point] | – |
| COC(=O)CN1C(=O)COc2ccc(S(=O)(=O)N3CCOCC3)cc21 | 3.77% | – | 6.51 µM [falling, single point] |
| COc1ccccc1-c1cc(C(=O)N/N=C/c2ccc(C)o2)c2ccccc2n1 | -22.9% | – | 29.1 µM [rising, partial curve, poor fit] |
| Cc1cc(-c2ccc(C)c(S(=O)(=O)NCc3ccc(Br)cc3)c2)on1 | -12% | – | 23.1 µM [falling, single point] |
| O=C(C1CC(=O)N(c2ccc3c(c2)OCCO3)C1)N1CCCC(C(F)(F)F)C1 (centres undefined) | 31% | 18.4 µM [rising, single point] | – |
| O=C1C2C(C(=O)N1CC1CCCO1)C1C=CC2C12CC2 (centres undefined) | -40.4% | 0.231 µM [falling, full curve] | 0.231 µM [falling, full curve, poor fit] |
| CCOc1ccc(NC(=O)CN2C(=O)COc3ccc(S(=O)(=O)N4CCCC4)cc32)cc1 | 0.38% | 2.31 µM [rising, partial curve] | 2.31 µM [rising, partial curve, poor fit] |

Shown with bars between the fields: part of the list above.
Structure (SMILES) | cell number change | AC50 [1] | AC50 [2]
Cc1cnc(NC(=O)CCc2ccccc2)s1 | 21.4% | – | 29.1 µM [rising, single point]
COc1ccc(N2CC(C(=O)N3CCN(C)CC3)CC2=O)cc1 (centres undefined) | -44.4% | – | 0.58 µM [rising, single point]

The results go on.

| Structure (SMILES) | cell number change | AC50 [1] | AC50 [2] |
| --- | --- | --- | --- |
| CSc1nsc(SCC(=O)Nc2ccc(F)cc2)n1 | -16.2% | – | – |
| c1ccc(COc2ccc(Oc3nc(N4CCCCC4)nc(N4CCOCC4)n3)nn2)cc1 | -31% | 29.1 µM [falling, single point] | – |
| Cc1cccc(Nc2nc(N)c([N+](=O)[O-])c(N3CC(C)OC(C)C3)n2)c1 (centres undefined) | -36.9% | 16.4 µM [falling, single point] | 1.84 µM [falling, partial curve, poor fit] |
| COc1ccc(C(=O)Nc2n[nH]c(-c3ccncc3)n2)cc1 | 1.38% | – | – |
| COCCNC(=O)C(=O)c1cc(C)n(-c2ccc([N+](=O)[O-])cc2)c1C | – | – | 0.58 µM [falling, single point] |
| O=C(c1ccc(COc2ccccc2Cl)o1)N1N=C(C(F)F)CC1(O)C(F)F (centres undefined) | -75.8% | 13 µM [falling, partial curve] | 9.2 µM [falling, partial curve] |
| O=C(CNCc1ccc(Cl)cc1)Nc1ccc(C(=O)N2CCCCCC2)cc1 | 15.1% | – | 0.231 µM [rising, partial curve, poor fit] |
| CCn1c2ccccc2c2cc(NC(=O)COC(=O)c3ccc(O)cc3)ccc21 | – | – | 1.84 µM [rising, partial curve, poor fit] |
| CC(C)C(=O)NNC(=O)CSc1nnnn1C(C)C | -0.155% | – | 1.84 µM [falling, partial curve] |
| O=C(/C=C/c1ccc2c(c1)OCO2)NCc1ccco1 | – | – | 0.366 µM [rising, full curve] |
| COc1cc(C2CC(c3cccs3)=NN2C(=O)CCl)ccc1OC(F)F (centres undefined) | – | – | 6.51 µM [falling, single point] |
| O=C(CSc1n[nH]c(-c2ccccc2)n1)N1CCOCC1 | 13.5% | – | 11.6 µM [falling, single point] |
| CCCCN1/C(=C/c2cccc[n+]2C)Sc2cc(NC(C)=O)ccc21 | – | – | 0.58 µM [falling, single point] |
| NC(=O)SCC(=O)Nc1ccc(Cl)c(Cl)c1 | 36.2% | 20.6 µM [rising, single point] | 29.1 µM [rising, single point] |
| Cc1ccc2c(c1)c(C)cc(=O)n2CCC(=O)O | 0.225% | – | 0.146 µM [rising, full curve, poor fit] |
| CCCN(C(=O)COC(=O)CSc1ccc(C(N)=O)cc1[N+](=O)[O-])C1CCS(=O)(=O)C1 (centres undefined) | – | 0.082 µM [falling, full curve, poor fit] | – |
| O=C(Nc1nc2c(s1)CCCC2)c1cc(-c2ccc3c(c2)OCO3)nc2ccccc12 | – | – | 29.1 µM [rising, single point] |
| CCCCOc1ccc(/C(O)=C(\C#N)c2nc3ccccc3[nH]2)cc1 | 32.7% | 32.6 µM [rising, partial curve, poor fit] | – |
| COCCNC(=O)C(NC(=O)C1CCC(C)CC1)C(C)C (centres undefined) | -44% | – | 29.1 µM [falling, single point] |
| Cc1cc(/C=C2\C(=N)N3N=C(CC(=O)N4CCOCC4)SC3=NC2=O)c(C)n1-c1ccccc1 | 29.5% | 0.326 µM [rising, full curve] | 1.16 µM [rising, full curve] |
